# Results are given in words; binding and its absence hold for the method and conditions named. For part of these data: In cells and extracts the contact can be indirect. Some results given as binding are weak or reduced against the parent protein; the word gives no strength. For part of these data: Sequences can lack the tags named with a protein.
# By UniProt entry, the sequences of proteins in these tests, tags left out. Where a name states a change or a piece, a line headed by the entry shows the natural chain unless it says otherwise.
# UniProt P22202: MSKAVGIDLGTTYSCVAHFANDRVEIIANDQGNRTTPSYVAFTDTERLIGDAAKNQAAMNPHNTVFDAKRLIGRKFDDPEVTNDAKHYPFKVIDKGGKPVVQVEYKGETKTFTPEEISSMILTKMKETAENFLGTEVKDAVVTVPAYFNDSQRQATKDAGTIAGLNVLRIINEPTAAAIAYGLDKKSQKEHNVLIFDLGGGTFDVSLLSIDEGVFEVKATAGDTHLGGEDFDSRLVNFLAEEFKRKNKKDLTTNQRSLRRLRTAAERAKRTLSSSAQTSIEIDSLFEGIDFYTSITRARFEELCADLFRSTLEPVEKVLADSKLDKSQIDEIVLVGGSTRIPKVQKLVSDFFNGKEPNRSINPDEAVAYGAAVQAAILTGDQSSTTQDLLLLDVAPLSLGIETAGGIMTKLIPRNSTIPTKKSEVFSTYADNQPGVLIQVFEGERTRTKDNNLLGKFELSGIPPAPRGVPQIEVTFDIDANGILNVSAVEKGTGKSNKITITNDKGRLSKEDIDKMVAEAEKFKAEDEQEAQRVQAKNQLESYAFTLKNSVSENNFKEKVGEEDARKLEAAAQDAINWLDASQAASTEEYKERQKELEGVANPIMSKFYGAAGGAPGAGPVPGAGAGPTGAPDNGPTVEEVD
# Key:
# [1] = biological target: BD-ScSSA4 (Stressseventy subfamily A 4, bait in pGBKT7) (yeast (prefix Sc; S288C reference genome named for yeast CDSs)) (UniProt P22202); assay: two-hybrid; ScSSA4 in pGBKT7 as bait; screen of a yeast cDNA library, then AD-ScPOM34 and BD-ScSSA4 co-transformed into Y2H Gold yeast, dilution assay on SD/-Leu/-Trp/-His/-Ade plate
# [2] = biological target: ScSSA4-MYC (yeast (prefix Sc; S288C reference genome named for yeast CDSs)) (UniProt P22202); assay: co-IP; ScSSA4-MYC and ScPOM34-FLAG co-expressed in N. benthamiana leaves; extract in IP buffer (150 mM NaCl, 5 mM DTT, 50 mM Tris-HCl pH 7.5, 1% Triton X-100) with anti-MYC antibody and protein A/G magnetic beads, 16 h at 4 °C; blot with anti-FLAG; extract without antibody as control
# [3] = biological target: ScSSA4 in the BiFC vector pDOE01 (yeast (prefix Sc; S288C reference genome named for yeast CDSs)) (UniProt P22202); assay: split reporter; BiFC: pDOE01-ScSSA4-ScPOM34 agroinfiltrated into N. benthamiana; confocal imaging 45 h after agroinfiltration, YFP channel
binder,measurement,setting,value
"AD-ScPOM34 (POre Membrane 34, prey in pGADT7) (protein, UniProt Q12445 1-299) MKIQAGQLGLDDNDVPGPLPDTDSKPSSQSQNDTPMFKLGNFESPVLKELSRRTVNKEMETQRIMTNVIAFAFWNLLVKFIKFFWNNTHVGRQFCNRLSRIHLYMLTFHTLKKANIIYHTTFSWLNAELLDYLFHLLISLNILFSLWKLLSTVKVSDLNLTDRQKKLLGVDMQSSVDTGLQPQHPHYVSTSKISQMAQNKTHIPQTNLKNHPAYLFKGLETPLKARQREMAEEQTKLQSQSLHTKNVFGTLQRHSGISSTLVSANNDNNSPHTPVTRKGYIPSSKYAYMMNSQSPRGKI",binding,[1],binds
"ScPOM34-FLAG (protein, UniProt Q12445 1-299) MKIQAGQLGLDDNDVPGPLPDTDSKPSSQSQNDTPMFKLGNFESPVLKELSRRTVNKEMETQRIMTNVIAFAFWNLLVKFIKFFWNNTHVGRQFCNRLSRIHLYMLTFHTLKKANIIYHTTFSWLNAELLDYLFHLLISLNILFSLWKLLSTVKVSDLNLTDRQKKLLGVDMQSSVDTGLQPQHPHYVSTSKISQMAQNKTHIPQTNLKNHPAYLFKGLETPLKARQREMAEEQTKLQSQSLHTKNVFGTLQRHSGISSTLVSANNDNNSPHTPVTRKGYIPSSKYAYMMNSQSPRGKI",binding,[2],binds
"ScPOM34 in the BiFC vector pDOE01 (protein, UniProt Q12445 1-299) MKIQAGQLGLDDNDVPGPLPDTDSKPSSQSQNDTPMFKLGNFESPVLKELSRRTVNKEMETQRIMTNVIAFAFWNLLVKFIKFFWNNTHVGRQFCNRLSRIHLYMLTFHTLKKANIIYHTTFSWLNAELLDYLFHLLISLNILFSLWKLLSTVKVSDLNLTDRQKKLLGVDMQSSVDTGLQPQHPHYVSTSKISQMAQNKTHIPQTNLKNHPAYLFKGLETPLKARQREMAEEQTKLQSQSLHTKNVFGTLQRHSGISSTLVSANNDNNSPHTPVTRKGYIPSSKYAYMMNSQSPRGKI",binding,[3],binds
